# Laboratory results taken from patent US6617425B1 (Novartis AG, priority 1996, dated 2003).
# How the values were obtained:
# [1] = general procedure: Fmoc solid-phase peptide synthesis; ortho-chloro-trityl chloride resin; EDC/HOBt/NMM (solution-phase examples); details: for crude yield: whole synthesis, scale of the general procedure 150 mg resin (1.05 mmol Cl-/g)
# [2] = Fmoc solid-phase peptide synthesis; ortho-chloro-trityl chloride resin; EDC/HOBt/NMM (solution-phase examples); details: whole synthesis
substance,measurement,setting,value
(R)-Aminomethylvalyl-(R)-aminomethylalanyl-(R)-aminomethylleucyl-(R)-aminomethylvalyl-(R)-aminomethylalanyl-(R)-aminomethylleucinate Trifluoroacetate,step yield,"[1]; late stage modification step, Trifluoroacetate",96%
Benzyl N-[(tert-Butoxy)carbonyl]-(R)-aminomethylvalyl-(R)-aminomethylalanyl-(R)aminomethylleucyl-(R)-aminomethylvalyl-(R)-aminomethyl alanyl-(R)-aminomethyl leucinate,step yield,[1]; coupling step,69%
H-β^2-HVal-β^2-HAla-β^2-HLeu-β^2-HPhe-β^2-HVal-β^2-HAla-β^2-HLeu-OH,crude mass,[2],60 mg
same,crude yield,[1],79%
H-β^3-HVal-β^3-HAla-β^3-HLeu-β^3-HPhe-β^3-HVal-β^3-HAla-β^3-HLeu-OH,crude mass,[2],68 mg
same,crude yield,[1],89%
